In publication doi:10.1101/149047:
Results are given in words; binding and its absence hold for the method and conditions named. A result given as binding can be weak or reduced; the word gives no strength.

These substances were tested against T1, OsNF-YB1 (rice (Oryza sativa)) (UniProt Q6Z348) (assay: two-hybrid).
T1 sequence: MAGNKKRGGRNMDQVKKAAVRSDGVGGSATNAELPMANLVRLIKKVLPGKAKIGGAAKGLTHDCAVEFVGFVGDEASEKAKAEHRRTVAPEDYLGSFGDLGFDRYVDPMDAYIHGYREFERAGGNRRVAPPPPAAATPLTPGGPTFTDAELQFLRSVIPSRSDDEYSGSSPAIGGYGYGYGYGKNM

Substance | binding
OsNF-YA8 (rice (Oryza sativa)) | no binding
OsNF-YC11 (rice (Oryza sativa)) | binds
OsERF74 (rice (Oryza sativa)) | no binding
OsERF72 (rice (Oryza sativa)) | no binding
OsNF-YC9 (rice (Oryza sativa)) | binds
OsNF-YC8 (rice (Oryza sativa)) | binds
OsNF-YC12 (rice (Oryza sativa)) | binds
OsNF-YC10 (rice (Oryza sativa)) | binds
